Drug screen on melanoma cell lines: apoptosis marker

Data from the primary screen of doi:10.1371/journal.pone.0140310, rounded.

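The test systems are human melanoma cell lines, treated with a pair of drugs for 72 h and then stained and imaged. Each value is the cleaved-PARP-positive fraction of nuclei relative to DMSO-treated wells, in %, so that 100 equals the control and higher values mean more apoptosis. Concentrations were fixed for each drug; these are the higher of two levels. The file gives one value for each pair and line, without errors, so small differences may be noise. Basal and induced levels differ widely between cell lines.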
An unselected part of the screen is shown.
A dash means that no value is listed here.

Drugs:
gemcitabine: Nc1ccn([C@@H]2O[C@H](CO)[C@@H](O)C2(F)F)c(=O)n1 at 0.002 µM
FH535: Cc1cc([N+](=O)[O-])ccc1NS(=O)(=O)c1cc(Cl)ccc1Cl at 5 µM
YM155: COCC[n+]1c2c(n(Cc3cnccn3)c1C)C(=O)c1ccccc1C2=O at 0.002 µM
sorafenib: CNC(=O)c1cc(Oc2ccc(NC(=O)Nc3ccc(Cl)c(C(F)(F)F)c3)cc2)ccn1 at 2 µM
pioglitazone: CCc1ccc(CCOc2ccc(CC3SC(=O)NC3=O)cc2)nc1 (configuration not stated) at 10 µM
ABT-263: CC1(C)CCC(c2ccc(Cl)cc2)=C(CN2CCN(c3ccc(C(=O)NS(=O)(=O)c4ccc(N[C@H](CCN5CCOCC5)CSc5ccccc5)c(S(=O)(=O)C(F)(F)F)c4)cc3)CC2)C1 at 2 µM
OSU-03012: NCC(=O)Nc1ccc(-n2nc(C(F)(F)F)cc2-c2ccc3c(ccc4ccccc43)c2)cc1 at 5 µM
IMD-0354: O=C(Nc1cc(C(F)(F)F)cc(C(F)(F)F)c1)c1cc(Cl)ccc1O at 0.08 µM
GSK650394: O=C(O)c1ccc(-c2c[nH]c3ncc(-c4ccccc4)cc23)cc1C1CCCC1 at 0.8 µM
ENMD-2076: Cc1cc(Nc2cc(N3CCN(C)CC3)nc(/C=C/c3ccccc3)n2)n[nH]1 at 0.2 µM
bexarotene: C=C(c1ccc(C(=O)O)cc1)c1cc2c(cc1C)C(C)(C)CCC2(C)C at 10 µM
KU-0063794: COc1ccc(-c2ccc3c(N4CCOCC4)nc(N4C[C@@H](C)O[C@@H](C)C4)nc3n2)cc1CO at 0.1 µM
vincristine: CC[C@]1(O)C[C@H]2CN(CCc3c([nH]c4ccccc34)[C@@](C(=O)OC)(c3cc4c(cc3OC)N(C=O)[C@H]3[C@@](O)(C(=O)OC)[C@H](OC(C)=O)[C@]5(CC)C=CCN6CC[C@]43[C@@H]65)C2)C1 at 0.0005 µM
bortezomib: CC(C)C[C@H](NC(=O)[C@H](Cc1ccccc1)NC(=O)c1cnccn1)B(O)O at 0.005 µM
CX-4945: O=C(O)c1ccc2c(c1)nc(Nc1cccc(Cl)c1)c1ccncc12 at 2 µM
lestaurtinib: C[C@]12O[C@H](C[C@]1(O)CO)n1c3ccccc3c3c4c(c5c6ccccc6n2c5c31)CNC4=O at 0.02 µM
vatalanib: Clc1ccc(Nc2nnc(Cc3ccncc3)c3ccccc23)cc1 at 10 µM
selumetinib: Cn1cnc2c(F)c(Nc3ccc(Br)cc3Cl)c(C(=O)NOCCO)cc21 at 0.075 µM
nutlin-3: COc1ccc(C2=N[C@@H](c3ccc(Cl)cc3)[C@@H](c3ccc(Cl)cc3)N2C(=O)N2CCNC(=O)C2)c(OC(C)C)c1 at 0.5 µM
BMS-536924: Cc1cc(N2CCOCC2)cc2[nH]c(-c3c(NC[C@@H](O)c4cccc(Cl)c4)cc[nH]c3=O)nc12 at 1 µM

| # | Pair | COLO 829 | IST-MEL1 | RPMI-7951 | WM1745 | SK-MEL-28 | WM1716 | LOX IMVI | SK-MEL-2 | IPC-298 | UACC-62 | A101D | WM3526 |
|---|---|---|---|---|---|---|---|---|---|---|---|---|---|
| 1 | gemcitabine and GSK650394 | 268 | 148 | 261 | 127 | 43.2 | 54.0 | 130 | 210 | 263 | 64.1 | 73.7 | 81.0 |
| 2 | FH535 and YM155 | 116 | 286 | 57.9 | 122 | 297 | 92.1 | 181 | 155 | 101 | 121 | 130 | 198 |
| 3 | GSK650394 and YM155 | 202 | 179 | 86.5 | 66.9 | 169 | 669 | 92.4 | 259 | 175 | 108 | 72.6 | 184 |
| 4 | selumetinib and nutlin-3 | 227 | 40.5 | 54.8 | 122 | 124 | 152 | 86.5 | 357 | 399 | 272 | 96.5 | 205 |
| 5 | ABT-263 and lestaurtinib | 144 | 184 | 201 | 3140 | 614 | 687 | 92.6 | 156 | 389 | 181 | 170 | 88.4 |
| 6 | bexarotene and IMD-0354 | 249 | 20.1 | 117 | 134 | 92.6 | 97.4 | 94.8 | 190 | 192 | 135 | 53.7 | 117 |
| 7 | sorafenib and lestaurtinib | 73.5 | 132 | 176 | 153 | 52.2 | 74.2 | 181 | 158 | 189 | 206 | 96.7 | 228 |
| 8 | pioglitazone and bortezomib | 4410 | 226 | 1640 | - | 1210 | 4560 | 357 | 160 | 5680 | 727 | 741 | 2910 |
| 9 | vatalanib and vincristine | 112 | 491 | 546 | 371 | 833 | 1890 | 167 | 1190 | 343 | 264 | 232 | 1730 |
| 10 | selumetinib and ENMD-2076 | 68.6 | 72.5 | 78.0 | 121 | 80.1 | 86.5 | 109 | 332 | 59.8 | 311 | 100 | 259 |
| 11 | GSK650394 and KU-0063794 | 33.2 | 73.1 | 85.9 | 430 | 109 | 121 | 93.9 | 272 | 305 | 410 | 120 | 208 |
| 12 | gemcitabine and YM155 | 420 | 312 | 223 | 180 | 272 | 150 | 111 | 202 | 316 | 263 | 73.3 | 416 |
| 13 | bexarotene and ABT-263 | 349 | 75.8 | 370 | 774 | 846 | 749 | 90.4 | 352 | 309 | 123 | 304 | 808 |
| 14 | ABT-263 and pioglitazone | 50.8 | 258 | 164 | - | 384 | 1590 | 78.1 | 26.2 | 85.8 | 182 | 112 | 221 |
| 15 | pioglitazone and CX-4945 | 269 | 150 | 142 | - | 115 | 242 | 168 | 182 | 55.9 | 372 | 39.9 | 234 |
| 16 | IMD-0354 and lestaurtinib | 191 | 184 | 69.3 | 139 | 185 | 45.9 | 106 | 219 | 92.3 | 186 | 102 | 293 |
| 17 | KU-0063794 and YM155 | 32.2 | 70.4 | 148 | 131 | 312 | 64.4 | 124 | 496 | 67.6 | 137 | 189 | 405 |
| 18 | bortezomib and YM155 | 3700 | 367 | 740 | 591 | 471 | 8490 | 285 | 530 | 2010 | 341 | 500 | 3690 |
| 19 | BMS-536924 and nutlin-3 | 59.8 | 50.4 | 73.1 | 162 | 257 | 71.7 | 174 | 324 | 68.0 | 129 | 110 | 150 |
| 20 | nutlin-3 and OSU-03012 | 93.6 | 135 | 121 | 268 | 403 | 51.0 | 218 | 824 | 546 | 131 | 85.4 | 525 |
| 21 | vincristine and nutlin-3 | 60.5 | 62.7 | 181 | 119 | 78.9 | 76.0 | 94.1 | 86.7 | 105 | 236 | 129 | 433 |

Some entries from above, unchanged:

Pair	COLO 829	IST-MEL1	RPMI-7951	WM1745	SK-MEL-28	WM1716	LOX IMVI	SK-MEL-2	IPC-298	UACC-62	A101D	WM3526
KU-0063794 and YM155	32.2	70.4	148	131	312	64.4	124	496	67.6	137	189	405
sorafenib and lestaurtinib	73.5	132	176	153	52.2	74.2	181	158	189	206	96.7	228